# PubChem BioAssay AID504793 – Drosophila RNAi Screening Center | 2011
# Aim: 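Knock-downs allowing continued mitosis even though DNA is damaged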 (primary screen)
# System: Drosophila S2R+ cells
# Reagents: long dsRNA against Drosophila genes, about 0.25 µg dsRNA per well
# Time to read-out: 4 days of dsRNA, then 4 hours of drug before read-out
# Treatment: doxorubicin 0.5 µM for 4 hours to cause double-strand breaks, in cells also given a low, harmless dose of dsRNA against nbs to sensitise the assay
# Measured: 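Mitotic index as the number of phospho-histone H3-positive cells in each well following doxorubicin, given as raw counts without normalisation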
# Scale: mitotic cells: higher = more cells in mitosis, weaker G2 arrest
# Call rule: 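Genes are called active only when high mitotic counts were reproduced with independent dsRNAs and mitosis was checked for delay without damage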
# Meaning of the calls: active = confirmed in follow-up tests; inactive = not confirmed
# The screen tested about 23,000 reagents; this is an unselected part of those with a known target gene and a result. In the full data, 62 (0.27%) got an active call. 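Calls come from follow-up tests whose scores are not deposited, so confirmed genes may have low counts here; counts are not normalised per plate.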 Raw values are not corrected between plates. A plus sign joins genes that one reagent is predicted to hit.
Gene,DRSC id,"mitotic cells, replicate 1","mitotic cells, replicate 2",activity call
CG16970 (retired record),DRSC02549,2,,inactive
CG16970 (retired record),DRSC25187,2,,inactive
CG1368,DRSC19537,7,,inactive
CG1368,DRSC25431,4,,inactive
yellow-e3,DRSC15170,10,,inactive
Unc-115b + p24-2,DRSC16492,12,,inactive
IFT54 (Intraflagellar transport 54),DRSC15469,5,,inactive
Tom20 (Translocase of outer membrane 20),DRSC10899,5,,inactive
Muc11A (Mucin 11A),DRSC19498,6,,inactive
Muc11A (Mucin 11A),DRSC29295,1,,inactive
pod1 (pod1 coronin),DRSC18362,6,,inactive
pod1 (pod1 coronin),DRSC23544,5,,inactive
"Itpr (Inositol 1,4,5,-trisphosphate receptor)",DRSC12354,3,,inactive
"Itpr (Inositol 1,4,5,-trisphosphate receptor)",DRSC28770,,,inactive
CG4250,DRSC04455,2,,inactive
rush (rush hour),DRSC18568,5,,inactive
Ets97D (Ets at 97D),DRSC16665,7,,inactive
Ets97D (Ets at 97D),DRSC27682,5,,inactive
CG13318,DRSC14581,5,,inactive
bru2 (bruno 2),DRSC01246,8,,inactive
bru2 (bruno 2),DRSC01247,4,,inactive
bru2 (bruno 2),DRSC01249,11,,inactive
bru2 (bruno 2),DRSC25003,4,,inactive
Tg (Transglutaminase),DRSC03047,6,,inactive
Tg (Transglutaminase),DRSC29048,1,,inactive
Taf1 (TBP-associated factor 1),DRSC12607,8,,inactive
Taf1 (TBP-associated factor 1),DRSC29806,3,,inactive
Cpr5C (Cuticular protein 5C),DRSC18340,11,13,inactive
twr (twisted bristles roughened eye),DRSC12491,8,,inactive
CG32021 (retired record),DRSC17206,17,,inactive
CG32021 (retired record),DRSC23926,8,,inactive
nur (nemuri),DRSC01342,4,,inactive
nur (nemuri),DRSC29629,6,,inactive
CG9389,DRSC11857,2,,inactive
mop (myopic),DRSC11065,3,,inactive
mop (myopic),DRSC28489,3,,inactive
Uev1A (Ubiquitin-conjugating enzyme variant 1A),DRSC09763,9,,inactive
CG11600,DRSC14332,4,,inactive
CG11600,DRSC24238,13,,inactive
Serinc (Serine incorporator),DRSC11296,6,,inactive
lbl (ladybird late),DRSC16986,5,,inactive
CG16741,DRSC06622,1,,inactive
CG16741,DRSC24117,8,,inactive
Rox8,DRSC16829,11,,inactive
Rox8,DRSC29536,3,,inactive
CG5565,DRSC00690,3,,inactive
Cyp313a3 (Cytochrome P450 313a3),DRSC16626,5,,inactive
Osi11 (Osiris 11),DRSC12282,1,,inactive
CG10413,DRSC02052,10,,inactive
fzr (fizzy-related),DRSC18781,15,,inactive
fzr (fizzy-related),DRSC28236,5,,inactive
Sgt (small glutamine-rich tetratricopeptide containing protein),DRSC02812,4,,inactive
Sgt (small glutamine-rich tetratricopeptide containing protein),DRSC25360,4,,inactive
Ank2 (Ankyrin 2),DRSC08894,17,,inactive
Ank2 (Ankyrin 2),DRSC09666,2,,inactive
Ank2 (Ankyrin 2),DRSC10338,3,,inactive
Ank2 (Ankyrin 2),DRSC11278,8,,inactive
Ank2 (Ankyrin 2),DRSC22922,5,,inactive
Ank2 (Ankyrin 2),DRSC29821,10,,inactive
IP3K1 + hpRNA:CR18854,DRSC23313,8,,inactive
Girdin,DRSC08292,8,,inactive
CG15873,DRSC04277,6,,inactive
CG5726,DRSC06946,6,,inactive
CG5726,DRSC25145,4,,inactive
hbn (homeobrain),DRSC04238,5,,inactive
hbn (homeobrain),DRSC04239,3,,inactive
hbn (homeobrain),DRSC22436,12,,inactive
CG15258,DRSC02478,6,,inactive
CG17687,DRSC10279,6,,inactive
CG17687,DRSC25837,6,,inactive
IleRS (Isoleucyl-tRNA synthetase),DRSC11667,6,,inactive
CG4757,DRSC14130,6,,inactive
wdb (widerborst),DRSC14163,4,,inactive
CG13083,DRSC02187,4,,inactive
CG13083,DRSC28424,9,,inactive

Copied from the list.
Result of Taf1 (TBP-associated factor 1) [DRSC29806] under “activity call”: inactive
For “mitotic cells, replicate 1”, IFT54 (Intraflagellar transport 54) [DRSC15469] has 5
Entry for CG13318 [DRSC14581] under “mitotic cells, replicate 1”: 5
Under “activity call”, Ank2 (Ankyrin 2) [DRSC22922] reads inactive
Rox8 [DRSC16829], mitotic cells, replicate 1 → 11
Value for Ank2 (Ankyrin 2) [DRSC10338] under “mitotic cells, replicate 1”: 3
